PubChem BioAssay AID1259308 | NCATS, 2017
Assay: 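Knock-downs that increase output of a recombinant reporter protein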 (primary screen). Cell system: human HEK293 embryonic kidney cells stably expressing firefly luciferase (HEK-CMV-Luc2-Hygro). Reagent: single siRNA against human genes, 0.8 pmol siRNA per well. Timing: 72 h. Measurement: 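Luciferase light (ONE-Glo) measured on one replicate plate set and viability (CellTiter-Glo) on the other, scaled to a negative control siRNA, with robust z-scores and luciferase per cell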. Scale: total luciferase, z-score: higher = more reporter protein produced. Hit rule: 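An siRNA counts as active if its total luciferase robust z-score exceeds 3; genes with two or more such siRNAs out of three were retested with fresh siRNAs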. Meaning of the calls: active = raised luciferase; inactive = no rise.
Shown is an unselected part of about 59,000 deposited reagents. Over the whole deposit, about 1,510 (2.6%) are marked active. 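Calls use total luciferase alone and ignore viability, so some active siRNAs may act by altering cell number.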 A number with no mark means an inactive call. Reagents against one gene are numbered here. Not all columns of the deposit are shown.

Silencing of BDNF #1 came out at: total luciferase, z-score 0.0528.
For BDNF #2, the values are total luciferase, z-score -1.85.
Knock-down of BDNF #3 came out at: total luciferase, z-score 0.156.
Against LACTB2 #1, the entry reads total luciferase, z-score 0.969.
Knock-down of LACTB2 #2 resulted in: total luciferase, z-score 0.749.
Depletion of LACTB2 #3 resulted in: total luciferase, z-score -0.406.
After knock-down of DUSP14 #1, the record shows total luciferase, z-score -0.834.
DUSP14 #2 scored total luciferase, z-score -0.454.
Knock-down of DUSP14 #3 came out at: total luciferase, z-score 0.146.
Depletion of IL36R #1 gave: total luciferase, z-score 0.758.
For IL36R #2, the entry reads total luciferase, z-score -0.465.
After knock-down of IL36R #3, the record shows total luciferase, z-score -0.654.
SELPLG #1 scored total luciferase, z-score -1.12.
With knock-down of SELPLG #2, the screen gave total luciferase, z-score -1.51.
SELPLG #3 showed total luciferase, z-score -1.48.
PLPPR1 #1 showed total luciferase, z-score 1.08.
Silencing of PLPPR1 #2 gave: total luciferase, z-score 0.77.
Against PLPPR1 #3, the values are total luciferase, z-score -1.11.
After knock-down of TRAF3IP2-AS1 #1, the record shows total luciferase, z-score 2.64.
Silencing of TRAF3IP2-AS1 #2 resulted in: total luciferase, z-score 3.1 (active).
TRAF3IP2-AS1 #3 showed total luciferase, z-score 0.403.

Copied from the list:
IL36R #3, total luciferase, z-score: -0.654
Value for BDNF #1 under “total luciferase, z-score”: 0.0528
LACTB2 #2, total luciferase, z-score = 0.749
